Laboratory results taken from PubChem BioAssay AID180 (DTP/NCI, 2004).
The list shows only some results of the screen, not a fair sample: it gathers tests that were run many times, whatever their T/C, doses with no T/C, and many T/C values between a quarter and a half above the control. Further doses and runs are listed elsewhere. T/C is the treated group as % of the vehicle group. Schedules are NCI's codes, taken here to give the interval after Q, in days (D) or hours (H), and the number of doses after X. Some T/C values are followed by the survivors on the day toxicity was checked, most often the fifth; where none is given, no animal had died by that day. Some doses have a count of surviving animals in place of a T/C: the source holds a T/C of zero for them, seemingly a mark for toxic or unscored doses. Survivors were counted at the toxicity check, usually on the fifth day, unless a day is given; later deaths do not show.

System: BDF1 mice, Adenocarcinoma 755 s.c., tumor weight T/C
Experiment: NCI In Vivo Anticancer Drug Screen. Data for tumor model Adenocarcinoma 755 (subcutaneous) in B6D2F1 (BDF1) mice
Conditions: T/C endpoint: mean tumor weight, higher T/C = larger tumour; for T/C: evaluated on day 12
Outline: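 Values express treated (T) relative to vehicle-dosed control (C) animals, based on survival or tumour size measured after compound treatment of mice bearing a transplanted tumour.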

[1] = dose: 20.0 mg/kg/injection, schedule: Q01DX011 (ip), vehicle: methylcellulose (MC)
[2] = dose: 25.0 mg/kg/injection, schedule: Q01DX011 (ip), vehicle: methylcellulose (MC)
[3] = dose: 60.0 mg/kg/injection, schedule: Q01DX011 (ip), vehicle: carboxymethylcellulose (CMC)
[4] = dose: 240.0 mg/kg/injection, schedule: Q01DX011 (ip), vehicle: carboxymethylcellulose (CMC)
[5] = dose: 450.0 mg/kg/injection, schedule: Q01DX011 (ip), vehicle: methylcellulose (MC)

**Q.** How did the survivor count (dose: 5.0 mg/kg/injection, schedule: Q01DX011 (ip), vehicle: methylcellulose (MC)) turn out when `Clc1ccc(N2CCN(CCCN3CCN(c4cccc(Cl)c4)CC3)CC2)cc1` was run?
**A.** 6 of 10

**Q.** What about the survivor count [1] of the same compound?
**A.** 6 of 10

**Q.** And the survivor count (dose: 40.0 mg/kg/injection, schedule: Q01DX011 (ip), vehicle: methylcellulose (MC))?
**A.** 3 of 10

**Q.** How did the T/C (dose: 25.0 mg/kg/injection, schedule: Q01DX011 (sc), vehicle: steroid suspending solution) turn out when `CC(=O)O[C@]1(C(C)=O)CC[C@H]2[C@@H]3C[C@H](C)C4=CC(=O)CC[C@]4(C)[C@H]3CC[C@@]21C` was run?
**A.** 127 % of control

**Q.** What does the source list for `CS(=O)(=O)OCCCCCOS(C)(=O)=O`?
**A.** survivor count [2]: 3 of 10; survivor count (dose: 37.0 mg/kg/injection, schedule: Q01DX011 (ip), vehicle: carboxymethylcellulose (CMC)): 6 of 10; survivor count (dose: 50.0 mg/kg/injection, schedule: Q01DX011 (ip), vehicle: methylcellulose (MC)): 4 of 10; survivor count (dose: 150.0 mg/kg/injection, schedule: Q01DX011 (ip), vehicle: carboxymethylcellulose (CMC)): 0 of 10; survivor count (dose: 300.0 mg/kg/injection, schedule: Q01DX011 (ip), vehicle: carboxymethylcellulose (CMC)): 0 of 10

**Q.** `O=C(O)c1cc(Cl)nc(Cl)n1` was tested. Which T/C (dose: 15.0 mg/kg/injection, schedule: Q01DX011 (ip), vehicle: methylcellulose (MC)) did it give?
**A.** 134 % of control

**Q.** What about the survivor count (dose: 250.0 mg/kg/injection, schedule: Q01DX011 (ip), vehicle: methylcellulose (MC)) of the same compound?
**A.** 2 of 10

**Q.** How did the T/C [3] turn out when `Nc1ncnc2c1nc(Br)n2C1OC(CO)C(O)C1O` (stereo unspecified) was run?
**A.** 127 % of control [9 of 10 alive]

**Q.** What about the T/C [4] of the same compound?
**A.** 133 % of control

**Q.** For `[I][Hg][CH2][C@H]1CO[C@H]([CH2][Hg][I])CO1`, which survivor count (dose: 50.0 mg/kg/injection, schedule: Q01DX011 (ip), vehicle: carboxymethylcellulose (CMC)) is on record?
**A.** 1 of 10

**Q.** And the survivor count (dose: 100.0 mg/kg/injection, schedule: Q01DX011 (ip), vehicle: carboxymethylcellulose (CMC))?
**A.** 0 of 10

**Q.** What about the survivor count (dose: 200.0 mg/kg/injection, schedule: Q01DX011 (ip), vehicle: carboxymethylcellulose (CMC)) of the same compound?
**A.** 0 of 10

**Q.** For `Nc1nc(N)c(N)c(N)n1`, which T/C (dose: 100.0 mg/kg/injection, schedule: Q01DX011 (ip), vehicle: saline) is on record?
**A.** 133 % of control

**Q.** Which survivor count (dose: 139.9 mg/kg/injection, schedule: Q01DX011 (ip), vehicle: carboxymethylcellulose (CMC)) does the source give for `Nc1nc(N)c2[nH]cnc2n1` here?
**A.** 3 of 10

**Q.** `C[C@]12CCCC[C@@H]1CC[C@@H]1[C@@H]2[C@@](C)(O)C[C@@]2(C)[C@H]1CC[C@]2(C)O` was tested. Which T/C (dose: 10.0 mg/kg/injection, schedule: Q01DX011 (sc), vehicle: steroid suspending solution) did it give?
**A.** 132 % of control

**Q.** And the T/C (dose: 100.0 mg/kg/injection, schedule: Q01DX011 (sc), vehicle: steroid suspending solution)?
**A.** 128 % of control

**Q.** `CCC(C)Cn1cnc2c(SCc3ccccn3)nc(N)nc21` (stereo unspecified) was tested. Which T/C (dose: 8.1 mg/kg/injection, schedule: Q01DX011 (ip), vehicle: methylcellulose (MC)) did it give?
**A.** 140 % of control [9 of 10 alive]

**Q.** What about the survivor count [1] of the same compound?
**A.** 6 of 10

**Q.** How did the survivor count (dose: 150.0 mg/kg/injection, schedule: Q01DX011 (ip), vehicle: methylcellulose (MC)) turn out when `Nc1ncnc2c1ncn2CCCl` was run?
**A.** 2 of 10

**Q.** For `O=S(=O)(F)c1ncc2[nH]cnc2n1`, which T/C [2] is on record?
**A.** 134 % of control

**Q.** And the survivor count (dose: 75.0 mg/kg/injection, schedule: Q01DX011 (ip), vehicle: methylcellulose (MC))?
**A.** 6 of 10

**Q.** Which survivor count (dose: 7.0 mg/kg/injection, schedule: Q01DX011 (ip), vehicle: methylcellulose (MC)) does the source give for `Nc1nc(N)c(N=O)c(Nc2ccc(Cl)c(Cl)c2)n1` here?
**A.** 6 of 10

**Q.** And the survivor count (dose: 9.0 mg/kg/injection, schedule: Q01DX011 (ip), vehicle: methylcellulose (MC))?
**A.** 6 of 10

**Q.** And the survivor count (dose: 28.0 mg/kg/injection, schedule: Q01DX011 (ip), vehicle: methylcellulose (MC))?
**A.** 4 of 10

**Q.** And the survivor count (dose: 57.0 mg/kg/injection, schedule: Q01DX011 (ip), vehicle: methylcellulose (MC))?
**A.** 1 of 10

**Q.** And the survivor count (dose: 114.0 mg/kg/injection, schedule: Q01DX011 (ip), vehicle: methylcellulose (MC))?
**A.** 1 of 10

**Q.** And the survivor count (dose: 456.0 mg/kg/injection, schedule: Q01DX011 (ip), vehicle: carboxymethylcellulose (CMC))?
**A.** 6 of 10

**Q.** What about the survivor count (dose: 912.0 mg/kg/injection, schedule: Q01DX011 (ip), vehicle: carboxymethylcellulose (CMC)) of the same compound?
**A.** 4 of 10

**Q.** And the survivor count (dose: 1824.0 mg/kg/injection, schedule: Q01DX011 (ip), vehicle: carboxymethylcellulose (CMC))?
**A.** 5 of 10

**Q.** With `CO[C@@]12[C@H](COC(N)=O)C3=C(C(=O)C(C)=C(N)C3=O)N1C[C@@H]1N[C@@H]12` as the compound, how does the survivor count (dose: 0.5 mg/kg/injection, schedule: Q01DX011 (ip), vehicle: carboxymethylcellulose (CMC)) read?
**A.** 0 of 10

**Q.** And the survivor count (dose: 1.0 mg/kg/injection, schedule: Q01DX011 (ip), vehicle: carboxymethylcellulose (CMC))?
**A.** 0 of 10

**Q.** What about the survivor count (dose: 2.0 mg/kg/injection, schedule: Q01DX011 (ip), vehicle: methylcellulose (MC)) of the same compound?
**A.** 6 of 10

**Q.** What about the survivor count (dose: 2.05 mg/kg/injection, schedule: Q01DX011 (ip), vehicle: carboxymethylcellulose (CMC)) of the same compound?
**A.** 3 of 10

**Q.** What about the T/C (dose: 256.0 micrograms/kg/injection, schedule: Q01DX011 (ip), vehicle: carboxymethylcellulose (CMC)) of the same compound?
**A.** 137 % of control [9 of 10 alive]

**Q.** And the survivor count (dose: 1800.0 micrograms/kg/injection, schedule: Q01DX011 (ip), vehicle: carboxymethylcellulose (CMC))?
**A.** 4 of 10

**Q.** What does the source list for `Nc1nc(=S)c2ncn(C3CCCO3)c2[nH]1` (stereo unspecified)?
**A.** survivor count (dose: 30.0 mg/kg/injection, schedule: Q01DX011 (ip), vehicle: carboxymethylcellulose (CMC)): 0 of 10; survivor count [3]: 0 of 10; survivor count (dose: 120.0 mg/kg/injection, schedule: Q01DX011 (ip), vehicle: carboxymethylcellulose (CMC)): 0 of 10; survivor count [4]: 0 of 10

**Q.** Which survivor count [5] does the source give for `CS(=O)(=O)OCCC(=O)NCCCCCNC(=O)CCOS(C)(=O)=O` here?
**A.** 6 of 10

**Q.** Which results are given for `CCC1CN1P(=O)(Oc1cccc2ccccc12)N1CC1CC` (stereo unspecified)?
**A.** survivor count (dose: 175.0 mg/kg/injection, schedule: Q01DX011 (ip), vehicle: carboxymethylcellulose (CMC)): 6 of 10; survivor count (dose: 350.0 mg/kg/injection, schedule: Q01DX011 (ip), vehicle: carboxymethylcellulose (CMC)): 0 of 10; survivor count (dose: 700.0 mg/kg/injection, schedule: Q01DX011 (ip), vehicle: carboxymethylcellulose (CMC)): 0 of 10; T/C (dose: 700.0 mg/kg/injection, schedule: Q01DX011 (ip), vehicle: methylcellulose (MC)): 137 % of control [9 of 10 alive]

**Q.** Which survivor count [5] does the source give for `CCC1OCC(C(Cl)CCl)O1` (stereo unspecified) here?
**A.** 5 of 10

**Q.** With `O=S1(=O)OCc2ccccc21` as the compound, how does the survivor count (dose: 110.0 mg/kg/injection, schedule: Q01DX011 (ip), vehicle: carboxymethylcellulose (CMC)) read?
**A.** 4 of 10

**Q.** What about the survivor count (dose: 220.0 mg/kg/injection, schedule: Q01DX011 (ip), vehicle: methylcellulose (MC)) of the same compound?
**A.** 3 of 10
